Laboratory results published in the supplement of paper PMC10849652.
The other results are listed elsewhere or left out.

The chains behind the UniProt entries cited, without tags or fusion partners. Where a name states a change or a piece, a line headed by the entry shows the natural chain unless it says otherwise.
UniProt Q8NDV7: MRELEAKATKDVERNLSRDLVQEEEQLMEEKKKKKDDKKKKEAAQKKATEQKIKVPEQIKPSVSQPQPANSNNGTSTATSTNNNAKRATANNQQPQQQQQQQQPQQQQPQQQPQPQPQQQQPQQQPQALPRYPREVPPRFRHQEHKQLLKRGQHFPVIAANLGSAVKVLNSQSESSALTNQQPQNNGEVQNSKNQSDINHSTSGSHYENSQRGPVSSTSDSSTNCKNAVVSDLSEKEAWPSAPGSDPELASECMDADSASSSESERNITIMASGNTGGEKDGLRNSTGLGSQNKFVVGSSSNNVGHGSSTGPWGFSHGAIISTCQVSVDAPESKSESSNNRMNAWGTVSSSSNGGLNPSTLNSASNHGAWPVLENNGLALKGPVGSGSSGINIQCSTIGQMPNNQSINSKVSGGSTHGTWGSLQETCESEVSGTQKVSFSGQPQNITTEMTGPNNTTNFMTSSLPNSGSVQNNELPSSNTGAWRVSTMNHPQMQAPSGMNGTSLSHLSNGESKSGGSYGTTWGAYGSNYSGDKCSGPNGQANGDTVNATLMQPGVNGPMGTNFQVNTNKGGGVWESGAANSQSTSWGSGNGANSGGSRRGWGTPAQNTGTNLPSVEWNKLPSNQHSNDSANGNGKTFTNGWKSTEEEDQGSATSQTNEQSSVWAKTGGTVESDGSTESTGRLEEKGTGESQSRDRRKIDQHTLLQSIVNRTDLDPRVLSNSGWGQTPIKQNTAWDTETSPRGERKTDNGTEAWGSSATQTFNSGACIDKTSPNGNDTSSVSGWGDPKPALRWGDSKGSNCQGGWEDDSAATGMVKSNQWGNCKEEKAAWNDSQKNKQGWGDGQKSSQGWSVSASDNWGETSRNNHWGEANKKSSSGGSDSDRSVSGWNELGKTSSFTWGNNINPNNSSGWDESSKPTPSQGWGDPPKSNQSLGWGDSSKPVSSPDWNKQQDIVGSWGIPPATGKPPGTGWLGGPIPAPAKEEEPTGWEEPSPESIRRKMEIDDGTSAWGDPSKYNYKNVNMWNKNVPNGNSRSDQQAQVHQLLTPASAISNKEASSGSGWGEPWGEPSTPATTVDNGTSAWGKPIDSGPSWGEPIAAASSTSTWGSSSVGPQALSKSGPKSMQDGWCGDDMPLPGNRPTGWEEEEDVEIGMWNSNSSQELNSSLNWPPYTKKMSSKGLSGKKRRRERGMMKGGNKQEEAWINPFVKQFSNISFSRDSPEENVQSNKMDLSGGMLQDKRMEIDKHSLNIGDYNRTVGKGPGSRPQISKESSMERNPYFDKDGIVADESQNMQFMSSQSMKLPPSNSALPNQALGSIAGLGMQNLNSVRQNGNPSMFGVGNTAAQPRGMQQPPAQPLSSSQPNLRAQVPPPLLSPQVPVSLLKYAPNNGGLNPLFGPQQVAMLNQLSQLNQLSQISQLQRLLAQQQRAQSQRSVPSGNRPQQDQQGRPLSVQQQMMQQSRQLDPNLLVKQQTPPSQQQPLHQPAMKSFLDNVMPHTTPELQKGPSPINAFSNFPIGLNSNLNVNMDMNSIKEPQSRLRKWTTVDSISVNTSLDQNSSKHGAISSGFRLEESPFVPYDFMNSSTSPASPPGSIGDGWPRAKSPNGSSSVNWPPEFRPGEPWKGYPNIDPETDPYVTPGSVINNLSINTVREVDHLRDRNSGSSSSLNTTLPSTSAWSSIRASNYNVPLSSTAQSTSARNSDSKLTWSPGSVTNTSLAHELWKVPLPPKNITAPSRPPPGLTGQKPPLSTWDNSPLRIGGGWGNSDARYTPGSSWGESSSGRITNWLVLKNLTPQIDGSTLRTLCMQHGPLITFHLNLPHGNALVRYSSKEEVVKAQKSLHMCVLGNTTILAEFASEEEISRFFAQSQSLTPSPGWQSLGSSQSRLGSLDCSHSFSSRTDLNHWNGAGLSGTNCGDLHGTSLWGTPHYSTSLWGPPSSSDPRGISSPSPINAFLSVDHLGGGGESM
UniProt Q96MH6: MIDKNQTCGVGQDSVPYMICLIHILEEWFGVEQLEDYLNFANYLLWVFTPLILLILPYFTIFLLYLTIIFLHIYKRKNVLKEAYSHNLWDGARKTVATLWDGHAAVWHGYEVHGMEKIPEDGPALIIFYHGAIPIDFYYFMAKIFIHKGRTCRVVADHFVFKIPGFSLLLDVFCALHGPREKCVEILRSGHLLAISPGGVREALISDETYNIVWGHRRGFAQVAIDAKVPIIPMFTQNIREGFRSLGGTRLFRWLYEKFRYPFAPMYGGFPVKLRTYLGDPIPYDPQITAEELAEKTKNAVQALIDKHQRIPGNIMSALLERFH
UniProt Q96JJ7: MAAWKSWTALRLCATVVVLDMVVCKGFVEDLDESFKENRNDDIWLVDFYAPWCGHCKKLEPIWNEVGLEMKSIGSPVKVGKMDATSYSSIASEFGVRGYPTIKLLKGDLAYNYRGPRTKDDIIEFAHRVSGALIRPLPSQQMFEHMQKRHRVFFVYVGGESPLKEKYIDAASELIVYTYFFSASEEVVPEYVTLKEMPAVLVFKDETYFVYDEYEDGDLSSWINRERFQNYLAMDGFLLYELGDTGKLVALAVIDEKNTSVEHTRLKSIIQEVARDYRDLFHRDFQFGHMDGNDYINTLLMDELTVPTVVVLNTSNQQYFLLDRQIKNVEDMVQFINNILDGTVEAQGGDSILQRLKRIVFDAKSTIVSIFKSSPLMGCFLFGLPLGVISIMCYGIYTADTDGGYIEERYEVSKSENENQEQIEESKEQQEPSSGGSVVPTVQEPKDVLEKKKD
UniProt Q9P0U1: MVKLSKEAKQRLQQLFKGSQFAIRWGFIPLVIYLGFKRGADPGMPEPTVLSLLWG
UniProt O95379: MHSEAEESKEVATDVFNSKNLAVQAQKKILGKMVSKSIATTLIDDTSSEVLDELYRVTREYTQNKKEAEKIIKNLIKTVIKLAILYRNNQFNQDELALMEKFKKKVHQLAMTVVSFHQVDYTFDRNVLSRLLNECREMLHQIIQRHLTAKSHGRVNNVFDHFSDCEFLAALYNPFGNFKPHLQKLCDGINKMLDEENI
UniProt Q0P6H9: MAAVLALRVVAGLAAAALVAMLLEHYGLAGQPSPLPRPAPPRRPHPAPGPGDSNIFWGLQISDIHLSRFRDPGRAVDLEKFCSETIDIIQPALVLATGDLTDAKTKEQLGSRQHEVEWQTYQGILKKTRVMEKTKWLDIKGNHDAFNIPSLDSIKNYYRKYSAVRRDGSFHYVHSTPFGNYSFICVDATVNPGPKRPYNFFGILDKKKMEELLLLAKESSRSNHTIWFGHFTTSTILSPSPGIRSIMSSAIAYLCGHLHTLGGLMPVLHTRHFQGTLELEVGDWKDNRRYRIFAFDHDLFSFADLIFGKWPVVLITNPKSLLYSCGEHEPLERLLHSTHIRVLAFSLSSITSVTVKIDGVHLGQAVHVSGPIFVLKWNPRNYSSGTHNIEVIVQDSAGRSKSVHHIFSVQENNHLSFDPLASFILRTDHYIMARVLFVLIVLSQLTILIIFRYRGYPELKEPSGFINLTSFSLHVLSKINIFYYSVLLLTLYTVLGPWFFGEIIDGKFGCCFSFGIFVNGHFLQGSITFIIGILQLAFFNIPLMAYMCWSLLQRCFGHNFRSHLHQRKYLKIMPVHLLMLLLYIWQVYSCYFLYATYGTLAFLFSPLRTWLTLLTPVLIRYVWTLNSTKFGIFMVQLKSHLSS
UniProt P28289: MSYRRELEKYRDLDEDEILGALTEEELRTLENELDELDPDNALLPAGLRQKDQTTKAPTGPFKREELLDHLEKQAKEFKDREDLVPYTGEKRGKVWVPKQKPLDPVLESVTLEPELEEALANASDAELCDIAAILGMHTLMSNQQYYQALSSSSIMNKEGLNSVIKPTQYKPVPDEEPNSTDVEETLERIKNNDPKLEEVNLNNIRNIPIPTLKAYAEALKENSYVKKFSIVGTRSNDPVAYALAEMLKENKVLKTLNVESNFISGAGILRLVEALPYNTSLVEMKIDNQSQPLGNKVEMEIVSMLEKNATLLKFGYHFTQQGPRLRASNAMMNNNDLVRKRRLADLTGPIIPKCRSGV
UniProt Q9NS69: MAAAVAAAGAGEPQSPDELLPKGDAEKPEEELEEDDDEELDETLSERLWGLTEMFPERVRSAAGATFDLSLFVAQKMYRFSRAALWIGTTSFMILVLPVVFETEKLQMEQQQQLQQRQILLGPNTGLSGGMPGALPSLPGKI
UniProt O94826, whole entry, looked up: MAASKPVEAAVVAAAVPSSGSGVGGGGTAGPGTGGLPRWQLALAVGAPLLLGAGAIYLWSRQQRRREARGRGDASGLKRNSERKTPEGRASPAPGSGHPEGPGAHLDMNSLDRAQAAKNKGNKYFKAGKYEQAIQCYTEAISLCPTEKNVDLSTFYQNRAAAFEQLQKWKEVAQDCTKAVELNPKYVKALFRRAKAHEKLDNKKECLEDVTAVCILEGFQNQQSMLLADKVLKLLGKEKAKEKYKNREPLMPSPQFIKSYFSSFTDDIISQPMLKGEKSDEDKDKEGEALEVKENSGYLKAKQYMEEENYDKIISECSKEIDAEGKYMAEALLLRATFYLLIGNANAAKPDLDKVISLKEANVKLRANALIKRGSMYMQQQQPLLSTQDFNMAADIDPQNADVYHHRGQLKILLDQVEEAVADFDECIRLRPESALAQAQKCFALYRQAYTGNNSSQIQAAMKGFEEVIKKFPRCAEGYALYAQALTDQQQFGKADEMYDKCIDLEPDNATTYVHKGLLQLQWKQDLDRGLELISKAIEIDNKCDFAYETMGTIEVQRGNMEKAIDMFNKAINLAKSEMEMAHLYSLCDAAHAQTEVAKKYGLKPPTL
UniProt Q71RG4: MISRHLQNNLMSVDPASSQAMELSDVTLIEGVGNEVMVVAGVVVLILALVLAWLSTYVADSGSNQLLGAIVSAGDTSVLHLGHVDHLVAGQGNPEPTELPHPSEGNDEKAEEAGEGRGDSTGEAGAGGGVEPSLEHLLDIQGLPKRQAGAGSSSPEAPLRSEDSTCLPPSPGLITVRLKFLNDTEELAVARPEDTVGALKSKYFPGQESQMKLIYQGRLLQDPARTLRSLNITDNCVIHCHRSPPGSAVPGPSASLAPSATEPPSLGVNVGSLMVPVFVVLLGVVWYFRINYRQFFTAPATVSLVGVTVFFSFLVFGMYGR
UniProt Q9H496: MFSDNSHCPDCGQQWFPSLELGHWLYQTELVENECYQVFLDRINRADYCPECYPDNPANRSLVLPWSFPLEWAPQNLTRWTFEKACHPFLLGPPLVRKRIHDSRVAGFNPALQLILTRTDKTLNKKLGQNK
UniProt Q9BVT8: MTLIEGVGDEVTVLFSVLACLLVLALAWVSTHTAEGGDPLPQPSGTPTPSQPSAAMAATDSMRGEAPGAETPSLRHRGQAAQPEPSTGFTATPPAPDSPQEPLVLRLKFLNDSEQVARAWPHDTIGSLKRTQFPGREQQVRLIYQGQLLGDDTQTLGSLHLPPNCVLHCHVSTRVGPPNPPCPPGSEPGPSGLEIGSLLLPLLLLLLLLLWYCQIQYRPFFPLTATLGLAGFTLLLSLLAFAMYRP
UniProt P51580: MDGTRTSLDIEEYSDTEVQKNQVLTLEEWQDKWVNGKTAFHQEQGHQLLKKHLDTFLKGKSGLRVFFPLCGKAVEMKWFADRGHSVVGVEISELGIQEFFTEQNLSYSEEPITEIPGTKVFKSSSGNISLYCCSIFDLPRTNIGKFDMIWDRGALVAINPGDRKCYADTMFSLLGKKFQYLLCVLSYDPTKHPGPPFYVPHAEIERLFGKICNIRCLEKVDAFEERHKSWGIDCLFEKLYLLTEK
UniProt P60174, whole entry, looked up: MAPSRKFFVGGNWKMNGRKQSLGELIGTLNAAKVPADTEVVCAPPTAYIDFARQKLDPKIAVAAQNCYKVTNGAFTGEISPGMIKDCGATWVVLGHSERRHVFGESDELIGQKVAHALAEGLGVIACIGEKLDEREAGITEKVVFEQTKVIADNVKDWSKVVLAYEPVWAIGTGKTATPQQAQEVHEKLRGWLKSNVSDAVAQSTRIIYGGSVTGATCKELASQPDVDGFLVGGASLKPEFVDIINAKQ
UniProt A0PJW6: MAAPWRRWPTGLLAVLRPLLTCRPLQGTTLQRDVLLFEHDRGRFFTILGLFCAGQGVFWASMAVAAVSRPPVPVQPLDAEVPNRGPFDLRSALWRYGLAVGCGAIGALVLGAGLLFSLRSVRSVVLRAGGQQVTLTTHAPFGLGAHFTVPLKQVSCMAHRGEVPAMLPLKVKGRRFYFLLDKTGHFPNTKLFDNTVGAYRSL
UniProt Q16890: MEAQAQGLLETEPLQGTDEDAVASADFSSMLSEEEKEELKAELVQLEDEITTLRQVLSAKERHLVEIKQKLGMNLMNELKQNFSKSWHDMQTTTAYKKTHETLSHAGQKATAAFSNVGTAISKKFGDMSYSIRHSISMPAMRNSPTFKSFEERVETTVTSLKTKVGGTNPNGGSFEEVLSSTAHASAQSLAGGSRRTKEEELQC

Key:
Experiment in all cases: log2 fold change, soluble protein after heating vs DMSO (PISA); higher = thermal stabilisation; K562 lysate, 10 uM; active = over 0.2 and 3.5 SD of the protein, either way, in both replicates (recomputed)
lapatinib = compound: CS(=O)(=O)CCNCc1ccc(-c2ccc3ncnc(Nc4ccc(OCc5cccc(F)c5)c(Cl)c4)c3c2)o1 [lapatinib]
Procedure, shortened: (§1)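 K562 pellets were dounce-homogenised in PBS pH 7.4 containing 1 mM MgCl2, and the crude extract, at 1 mg/mL protein, was exposed to 10 μM compound for 30 min. Aliquots were heated for 3 min across 48°C-58°C, pooled, brought to 0.5% NP-40 at 4°C and spun at 21,000xg for 90 min, with the supernatant taken as soluble protein. TMTpro 16plex LC-MS/MS with equalised channel sums quantified that protein. Values are log-two fold changes in thermal stability relative to solvent controls, taken from duplicates.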

pictilisib = compound: CS(=O)(=O)N1CCN(Cc2cc3nc(-c4cccc5[nH]ncc45)nc(N4CCOCC4)c3s2)CC1 [pictilisib]
Procedure, shortened: as §1

crizotinib = compound: C[C@@H](Oc1cc(-c2cnn(C3CCNCC3)c2)cnc1N)c1c(Cl)ccc(F)c1Cl [crizotinib]
Procedure, shortened: as §1

[1] = compound: C[C@H](C1=CC=C(C=C1)C(=O)NC2=C3C=CNC3=NC=C2)N
Procedure, shortened: as §1

duvelisib = compound: C[C@H](Nc1ncnc2nc[nH]c12)c1cc2cccc(Cl)c2c(=O)n1-c1ccccc1 [duvelisib]
Procedure, shortened: as §1

gandotinib = compound: Cc1cc(Nc2cc(CN3CCOCC3)c3nc(C)c(Cc4ccc(Cl)cc4F)n3n2)n[nH]1 [gandotinib]
Procedure, shortened: as §1

tozasertib = compound: Cc1cc(Nc2cc(N3CCN(C)CC3)nc(Sc3ccc(NC(=O)C4CC4)cc3)n2)n[nH]1 [tozasertib]
Procedure, shortened: as §1

doramapimod = compound: Cc1ccc(-n2nc(C(C)(C)C)cc2NC(=O)Nc2ccc(OCCN3CCOCC3)c3ccccc23)cc1 [doramapimod]
Procedure, shortened: as §1

bafetinib = compound: Cc1ccc(NC(=O)c2ccc(CN3CC[C@H](N(C)C)C3)c(C(F)(F)F)c2)cc1Nc1nccc(-c2cncnc2)n1 [bafetinib]
Procedure, shortened: as §1

[2] = compound: Cc1cccc(CC(=O)N2CCc3c2ccc(-c2cn(C)c4ncnc(N)c24)c3F)n1
Procedure, shortened: as §1

nilotinib = compound: Cc1cn(-c2cc(NC(=O)c3ccc(C)c(Nc4nccc(-c5cccnc5)n4)c3)cc(C(F)(F)F)c2)cn1 [nilotinib]
Procedure, shortened: as §1

[3] = compound: Cc1nc(Nc2n[nH]c3c2CN(C(=O)N[C@H](CN(C)C)c2ccccc2)C3(C)C)c2sccc2n1
Procedure, shortened: as §1

dasatinib = compound: Cc1nc(Nc2ncc(C(=O)Nc3c(C)cccc3Cl)s2)cc(N2CCN(CCO)CC2)n1 [dasatinib]
Procedure, shortened: as §1

[4] = compound: Cc1ncc(-c2ccnc(Nc3ccc(S(C)(=O)=O)cc3)n2)n1C(C)C
Procedure, shortened: as §1

[5] = compound: Cn1cc(-c2ccc3c(c2)CCN3C(=O)Cc2cccc(C(F)(F)F)c2)c2c(N)ncnc21
Procedure, shortened: as §1

quisinostat = compound: Cn1cc(CNCC2CCN(c3ncc(C(=O)NO)cn3)CC2)c2ccccc21 [quisinostat]
Procedure, shortened: as §1

tipifarnib = compound: Cn1cncc1[C@@](N)(c1ccc(Cl)cc1)c1ccc2c(c1)c(-c1cccc(Cl)c1)cc(=O)n2C [tipifarnib]
Procedure, shortened: as §1

[6] = compound: NC(=O)Nc1cc(-c2cccc(F)c2)sc1C(=O)N[C@H]1CCCNC1
Procedure, shortened: as §1

[7] = compound: NC(=O)c1cnc(N[C@@H]2CCCC[C@@H]2N)nc1Nc1cccc(-n2nccn2)c1
Procedure, shortened: as §1

[8] = compound: NC1(c2ccc(-c3nc4ccn5c(=O)[nH]nc5c4cc3-c3ccccc3)cc2)CCC1
Procedure, shortened: as §1

Measured: log2 fold change

TNRC6A (UniProt Q8NDV7)
inactive: lapatinib 0.285 | pictilisib -0.203 | crizotinib 0.057 | [1] -0.024 | duvelisib 0.024 | gandotinib 0.008 | tozasertib -0.259 | doramapimod 0.069 | bafetinib -0.085 | [2] 0.037 | nilotinib -0.092 | [3] -0.016 | dasatinib -0.021 | [4] -0.014 | [5] -0.098 | quisinostat 0.226 | tipifarnib -0.172 | [6] -0.043 | [7] -0.014 | [8] -0.023

TMEM68 (UniProt Q96MH6)
inactive: lapatinib -0.018 | pictilisib -0.037 | crizotinib -0.016 | [1] -0.079 | duvelisib -0.033 | gandotinib 0.067 | tozasertib 0.059 | doramapimod 0.045 | bafetinib -0.028 | [2] 0.08 | nilotinib 0.039 | [3] -0.117 | dasatinib -0.03 | [4] -0.022 | [5] -0.037 | quisinostat -0.033 | tipifarnib -0.008 | [6] 0.04 | [7] -0.043 | [8] -0.073

TMX3 (UniProt Q96JJ7)
inactive: lapatinib -0.016 | pictilisib -0.027 | crizotinib -0.001 | [1] -0.083 | duvelisib 0.021 | gandotinib 0.032 | tozasertib -0.005 | doramapimod 0.005 | bafetinib -0.005 | [2] 0.015 | nilotinib 0.025 | [3] -0.012 | dasatinib -0.014 | [4] -0.036 | [5] 0.03 | quisinostat -0.026 | tipifarnib -0.032 | [6] -0.023 | [7] -0.006 | [8] 0.008

Pulled one by one from the list above, two records:
TMEM68 (UniProt Q96MH6)
inactive: lapatinib -0.018 | pictilisib -0.037 | crizotinib -0.016 | [1] -0.079 | duvelisib -0.033 | gandotinib 0.067 | tozasertib 0.059 | doramapimod 0.045 | bafetinib -0.028 | [2] 0.08 | nilotinib 0.039 | [3] -0.117 | dasatinib -0.03 | [4] -0.022 | [5] -0.037 | quisinostat -0.033 | tipifarnib -0.008 | [6] 0.04 | [7] -0.043 | [8] -0.073

TMX3 (UniProt Q96JJ7)
inactive: lapatinib -0.016 | pictilisib -0.027 | crizotinib -0.001 | [1] -0.083 | duvelisib 0.021 | gandotinib 0.032 | tozasertib -0.005 | doramapimod 0.005 | bafetinib -0.005 | [2] 0.015 | nilotinib 0.025 | [3] -0.012 | dasatinib -0.014 | [4] -0.036 | [5] 0.03 | quisinostat -0.026 | tipifarnib -0.032 | [6] -0.023 | [7] -0.006 | [8] 0.008

The list continues.

TOMM7 (UniProt Q9P0U1)
inactive: lapatinib 0.017 | pictilisib -0.009 | crizotinib -0.17 | [1] -0.008 | duvelisib -0.006 | gandotinib 0.076 | tozasertib 0.08 | doramapimod 0.051 | bafetinib -0.067 | [2] 0.094 | nilotinib 0.059 | [3] 0.031 | dasatinib 0.032 | [4] 0.084 | [5] -0.027 | quisinostat -0.15 | tipifarnib -0.061 | [6] 0.019 | [7] -0.006 | [8] -0.051

TNFAIP8 isoform 4 (UniProt O95379)
inactive: lapatinib -0.004 | pictilisib -0.018 | crizotinib 0.057 | [1] 0.009 | duvelisib 0.001 | gandotinib 0.026 | tozasertib 0.042 | doramapimod -0.088 | bafetinib -0.014 | [2] -0.011 | nilotinib -0.075 | [3] 0.033 | dasatinib 0.018 | [4] 0.021 | [5] 0.002 | quisinostat 0.032 | tipifarnib 0.043 | [6] -0.032 | [7] 0.059 | [8] 0.006

TMEM62 (UniProt Q0P6H9)
inactive: lapatinib -0.033 | pictilisib -0.12 | crizotinib 0.032 | [1] -0.237 | duvelisib -0.08 | gandotinib -0.223 | tozasertib -0.011 | doramapimod -0.009 | bafetinib -0.155 | [2] 0.198 | nilotinib 0.101 | [3] -0.01 | dasatinib 0.035 | [4] -0.003 | [5] -0.063 | quisinostat 0.024 | tipifarnib -0.05 | [6] 0.019 | [7] 0.121 | [8] -0.049

TMOD1 (UniProt P28289)
inactive: lapatinib 0 | pictilisib -0.032 | crizotinib -0.011 | [1] 0.039 | duvelisib -0.008 | gandotinib -0.059 | tozasertib 0.026 | doramapimod 0.019 | bafetinib -0.004 | [2] -0.029 | nilotinib -0.029 | [3] -0.032 | dasatinib 0.011 | [4] -0.02 | [5] 0.014 | quisinostat -0.007 | tipifarnib -0.013 | [6] 0.031 | [7] 0.008 | [8] -0.015

TOMM22 (UniProt Q9NS69)
inactive: lapatinib 0.029 | pictilisib -0.016 | crizotinib -0.01 | [1] -0.049 | duvelisib 0.045 | gandotinib 0.025 | tozasertib -0.005 | doramapimod -0.006 | bafetinib -0.019 | [2] -0.01 | nilotinib 0.043 | [3] 0.011 | dasatinib 0.033 | [4] 0.094 | [5] -0.073 | quisinostat -0.021 | tipifarnib -0.014 | [6] 0.038 | [7] -0.054 | [8] 0.027

TOMM70 (UniProt O94826)
inactive: lapatinib 0.036 | pictilisib -0.02 | crizotinib 0.018 | [1] 0.133 | duvelisib -0.013 | gandotinib -0.104 | tozasertib 0.064 | doramapimod 0.024 | bafetinib -0.001 | [2] -0.04 | nilotinib -0.042 | [3] -0.042 | dasatinib -0.018 | [4] -0.031 | [5] -0.003 | quisinostat 0.017 | tipifarnib -0.043 | [6] -0.012 | [7] 0.058 | [8] 0.061

TMUB2 (UniProt Q71RG4)
inactive: lapatinib 0.011 | pictilisib -0.007 | crizotinib -0.01 | [1] 0.072 | duvelisib 0.114 | gandotinib -0.021 | tozasertib -0.122 | doramapimod -0.085 | bafetinib -0.02 | [2] 0.021 | nilotinib 0.006 | [3] -0.048 | dasatinib 0.04 | [4] -0.024 | [5] -0.061 | quisinostat 0.003 | tipifarnib 0.126 | [6] -0.113 | [7] -0.004 | [8] -0.048

TOR1AIP2 (UniProt Q9H496)
inactive: lapatinib -0.088 | pictilisib -0.027 | crizotinib -0.023 | [1] -0.066 | duvelisib 0.119 | gandotinib 0.111 | tozasertib -0.061 | doramapimod -0.06 | bafetinib 0.083 | [2] 0.05 | nilotinib 0.074 | [3] -0.029 | dasatinib 0.24 | [4] 0.154 | [5] 0.352 | quisinostat -0.024 | tipifarnib -0.112 | [6] 0.037 | [7] 0.062 | [8] -0.106

TMUB1 (UniProt Q9BVT8)
inactive: lapatinib 0.019 | pictilisib -0.051 | crizotinib -0.085 | [1] 0.089 | duvelisib -0.112 | gandotinib -0.143 | tozasertib -0.186 | doramapimod -0.004 | bafetinib -0.016 | [2] -0.028 | nilotinib -0.008 | [3] -0.003 | dasatinib -0.059 | [4] 0.004 | [5] 0.101 | quisinostat -0.051 | tipifarnib -0.055 | [6] 0.018 | [7] -0.003 | [8] -0.007

TPMT (UniProt P51580)
inactive: lapatinib 0.036 | pictilisib -0.012 | crizotinib 0.057 | [1] -0.01 | duvelisib -0.001 | gandotinib -0.048 | tozasertib -0.038 | doramapimod -0.012 | bafetinib 0.118 | [2] -0.011 | nilotinib 0.015 | [3] 0.025 | dasatinib 0.018 | [4] -0.015 | [5] 0.007 | quisinostat 0.088 | tipifarnib 0.029 | [6] -0.017 | [7] -0.015 | [8] 0.046

TPI1 (UniProt P60174)
inactive: lapatinib -0.02 | pictilisib 0.054 | crizotinib -0.036 | [1] -0.176 | duvelisib -0.006 | gandotinib 0.07 | tozasertib -0.092 | doramapimod -0.018 | bafetinib -0.164 | [2] 0.004 | nilotinib -0.003 | [3] 0.008 | dasatinib -0.004 | [4] 0.016 | [5] -0.011 | quisinostat -0.11 | tipifarnib 0.019 | [6] 0.027 | [7] -0.031 | [8] -0.007

TMEM223 (UniProt A0PJW6)
inactive: lapatinib -0.008 | pictilisib 0.073 | crizotinib 0.074 | [1] -0.078 | duvelisib -0.04 | gandotinib 0.091 | tozasertib 0.055 | doramapimod 0.303 | bafetinib -0.132 | [2] 0.044 | nilotinib 0.015 | [3] -0.148 | dasatinib -0.005 | [4] -0.04 | [5] 0.058 | quisinostat 0.06 | tipifarnib 0.037 | [6] -0.084 | [7] 0 | [8] 0.046

TPD52L1 (UniProt Q16890)
inactive: lapatinib 0.017 | pictilisib -0.048 | crizotinib 0.111 | [1] 0.022 | duvelisib -0.01 | gandotinib 0.184 | tozasertib -0.05 | doramapimod -0.006 | bafetinib 0.035 | [2] -0.13 | nilotinib 0.037 | [3] -0.031 | dasatinib 0.032 | [4] -0.019 | [5] -0.012 | quisinostat 0.097 | tipifarnib 0.013 | [6] -0.038 | [7] -0.1 | [8] 0.057
